Data published in US9371307B2, “Serine protease inhibitors” (THE JOHNS HOPKINS UNIVERSITY, priority 2011, dated 2016).
At least one compound was matched to its structure with a doubt left.

System: Trypsin
Assay: Selectivity of chymase inhibitors against trypsin
Assay type: biochemical
Settings: ratio of Ki enzyme/Ki chymase
Protocol: As provided in Table 1, hereinabove in Example 2, selectivity was tested by measuring the inhibitory activity of ef-rs-03-075 and analogs against other serine proteases, including thrombin, trypsin, and tryrptase.

For `O=S(=O)(/C=C/c1cccc(Cl)c1)N(Cc1cccc(Br)c1)c1cccc(Cl)c1` [ef-rs-08-050], the “Selectivity of chymase inhibitors: Trypsin” value was >90.
